Source: PubChem BioAssay AID1259308 (NCATS, 2017)

Screen: 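Knock-downs that increase output of a recombinant reporter protein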 (primary screen)
System: human HEK293 embryonic kidney cells stably expressing firefly luciferase (HEK-CMV-Luc2-Hygro)
Knock-down reagent: single siRNA against human genes, 0.8 pmol siRNA per well
Time to read-out: 72 h
Measurement: 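Reporter luminescence and viable-cell signal on separate replicate plates, given as percent of non-targeting control and median/MAD z-scores, plus per-cell luciferase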
Scale: total luciferase, z-score and total luciferase, % of control: higher = more reporter protein produced; luciferase per cell, z-score: higher = more reporter output per viable cell; viable cells, % of control: higher = more viable cells
Call rule: 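Active when the median/MAD z-score for overall luciferase is greater than 3; a gene was taken forward for validation with new siRNAs if at least two of its three siRNAs passed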
Meaning of the calls: active = raised luciferase; inactive = no rise
In all, the deposit lists about 59,000 reagents; this is a random part of them. About 1,510 of all reagents (2.6%) count as active. 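Calls use total luciferase alone and ignore viability, so some active siRNAs may act by altering cell number.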 Unmarked entries are inactive. Reagents against one gene are numbered here.

"total luciferase, z-score","total luciferase, % of control","luciferase per cell, z-score","viable cells, % of control",target,reagent
0.318,88.2,0.796,79.9,ARMC1,1
-0.978,62.4,-0.374,77,ARMC1,2
-0.362,74.7,-0.381,92.3,ARMC1,3
-0.0941,80,-0.0599,90.8,NT5DC1,1
1.88,119,2.03,78.1,NT5DC1,2
-0.221,77.5,-0.152,90.1,NT5DC1,3
-1.74,47.3,-1.96,88.4,FOXE1,1
-0.0523,80.8,-0.0789,92.2,FOXE1,2
0.25,86.9,-0.313,105,FOXE1,3
5.51 (active),192,3.51,85,FAM221B,1
0.0408,82.7,0.572,79.5,FAM221B,2
0.488,91.6,1.18,75,FAM221B,3
-0.35,74.9,0.395,75.5,KLF7,1
-0.163,78.6,-0.243,93.7,KLF7,2
-0.565,70.6,-0.689,94.7,KLF7,3
0.111,84.1,1.43,64.5,P2RY10,1
-0.206,77.8,-0.531,100,P2RY10,2
-0.241,77.1,-0.379,95.2,P2RY10,3
-0.289,76.1,-0.365,93.7,GOLPH3,1
-0.729,67.4,-0.187,79.1,GOLPH3,2
-0.293,76.1,-0.128,87.9,GOLPH3,3

Ordered by “luciferase per cell, z-score” (high to low): some entries from above
"total luciferase, z-score","total luciferase, % of control","luciferase per cell, z-score","viable cells, % of control",target,reagent
5.51 (active),192,3.51,85,FAM221B,1
0.488,91.6,1.18,75,FAM221B,3
0.0408,82.7,0.572,79.5,FAM221B,2
-0.35,74.9,0.395,75.5,KLF7,1
-0.163,78.6,-0.243,93.7,KLF7,2
-0.565,70.6,-0.689,94.7,KLF7,3

The results go on.
"total luciferase, z-score","total luciferase, % of control","luciferase per cell, z-score","viable cells, % of control",target,reagent
-0.0667,80.6,-0.58,105,CTIF,1
0.314,88.1,0.293,91.2,CTIF,2
0.131,84.5,-0.479,107,CTIF,3
-0.106,79.8,0.849,71.3,ANKRD35,1
-1.19,58.3,-0.871,81.9,ANKRD35,2
-0.193,78.1,-0.811,108,ANKRD35,3
-0.215,77.6,-0.256,92.8,USP37,1
0.263,87.1,-0.829,121,USP37,2
-0.43,73.3,-0.314,89,USP37,3
0.184,85.5,0.749,78.5,FIP1L1,1
-0.48,72.3,-0.631,95.4,FIP1L1,2
-1.05,61.1,-0.774,83.7,FIP1L1,3
0.27,87.3,0.129,94.2,SERHL2,1
4.39 (active),169,3.15,82.5,SERHL2,2
-0.776,66.4,-0.518,85.1,SERHL2,3
-0.158,78.7,0.111,85.4,MAPRE3,1
-0.329,75.4,-0.508,96.2,MAPRE3,2
0.0261,82.4,-0.279,99.1,MAPRE3,3
